Data taken from ChEMBL document CHEMBL3988442, “University of Dundee, Small-Polar-MMV Screening Library” (2021).

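Whole-parasite assay of Trypanosoma brucei over 72 hours; the read-out is not stated. Concentration: 30 µM. Higher reads as stronger inhibition (inferred: compounds with an IC50 in retests scored well above the rest). Values scatter widely below zero; nearly all retest evidence comes from the higher of the two concentrations used. Size under these conditions: about 64,000 compounds, about 940 of them at 50% or above in at least one test.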

Results are given as percent effect.
The controls that fix the scale are not given in the record; negative values are as filed.
The compounds are a random part of those screened.

SMILES,percent effect
Cc1cc(C(=O)N2CCCC3(COCCN(c4ccccc4)C3)C2)[nH]n1 (centres unmarked),-45.2%
CC(=O)c1c(F)cccc1NC1CCN(C(=O)C2CCCCC2)CC1,-32.26%
CN(Cc1ccccc1)C(=O)CSc1ccc2c(c1)OCCO2,-53.44%
Cn1cc2c(n1)C(CNCc1ccco1)OCC2.O=C(O)C(F)(F)F.O=C(O)C(F)(F)F (centres unmarked),-82.64%
CCOCC1CN(Cc2ccc(OC)cc2)Cc2nn(CC3CC3)cc21.O=C(O)C(F)(F)F (centres unmarked),-39.92%
Cc1cc(CN2CCC(CNC(=O)c3noc4c3CCCC4)C2)[nH]n1 (centres unmarked),-303.5%
CN(Cc1cccnc1)C1CC2(CCN(c3ncccn3)CC2)C1.O=C(O)C(F)(F)F.O=C(O)C(F)(F)F,-50.17%
CC(C)C(Sc1nccn1C1CC1)C(=O)NCc1cccnc1 (centres unmarked),-23%
COCCn1c2c(ccc1=O)CCN(C(=O)Cc1cccs1)CC2,-13.95%
CSCCc1ccc(NC(=O)NCc2ccnc(N(C)C)c2)cc1,20.55%
O=C(Nc1ccccc1)c1cccc(S(=O)(=O)NC[C@@H]2C[C@H](F)CN2)c1,-0.2042%
CCCN1CCC(NCc2ccncc2)CC1,-12.46%
CS(=O)(=O)N1CCN(CC2CC2)c2ncccc2C1,-70.1%
Cc1nn(C)c2cn(C(C)C(=O)NCc3ccncc3)nc12 (centres unmarked),-10.57%
Cc1cc(NC(=O)Cn2ccc(-c3ccc4c(c3)OCO4)n2)n(C)n1,-34.74%
[H][C@@]12C[C@H](C(=O)N3CCOCC3)[C@@]([H])(CN(C(=O)Nc3ccc(F)cc3)C1)O2,33.15%
Cc1noc(C)c1CN(C)C(=O)Cn1c(=O)n(C)c2ccccc21,-12.69%
CCc1cnc(NC(=O)NC2CCN(C)CC2)s1,16.51%
CCN(Cc1cnc(NCc2ccccc2)nc1)C1CCS(=O)(=O)C1 (centres unmarked),-22.66%
Cc1cc(=O)[nH]c(-n2nc(C3CC3)cc2N)n1,-21.61%
CCCn1nc2c(cc1=O)CN(Cc1cc(C)on1)CC2,4.246%
CC(C)CNc1nc(C(=O)/N=c2\[nH]nc(C(C)(C)C)s2)cs1,-9.789%
COc1ccc(CN2CCOC[C@H](OCc3ccccc3)C2)cc1,-13.23%
CCc1ncc(C(=O)NC(C)(C)CC)s1,-55.17%
CCOc1ccc2oc(-c3cnn(C)c3C)c(O)c(=O)c2c1,4.92%
CSCCCN1CCn2nc(CNC(C)=O)cc2C1,-102.6%
CCC(CCN)n1ccc(C(F)(F)F)n1 (centres unmarked),-22.21%
O=C(O)C(F)(F)F.O=C(O)C(F)(F)F.[H][C@@]12CCN(Cc3ccsc3)C[C@@]1([H])O[C@@H](C(=O)Nc1cccnc1C)C2,-26.52%
Cc1cccc(CN2CCC(C3Nc4ccccc4S(=O)(=O)N3)CC2)n1 (centres unmarked),19.17%
O=C(O)C(F)(F)F.O=C(O)C(F)(F)F.[H][C@@]12CCN(c3ccncn3)C[C@@]1([H])O[C@@H](C(=O)NCc1cccnc1)C2,-0.2028%
N[C@H]1CN(S(=O)(=O)c2ccccc2)C[C@@H]1C1CC1,-5.976%
CCc1nc2n(n1)CC(Nc1ccnc(-c3ccccc3)n1)CC2 (centres unmarked),-13.63%
O=C(c1ccco1)N1CCC2(CCOC2)C1 (centres unmarked),-11.71%
CCCn1ncc(CN(Cc2cccnc2)Cc2ccsc2)c1C,-8.061%
CCn1ncc2c1C(COCC1CC1)CN(c1ccc(C)nn1)C2.O=C(O)C(F)(F)F.O=C(O)C(F)(F)F (centres unmarked),-29.53%
CCc1nc(CN2CCCN(C(=O)c3cn[nH]c3CC)CC2)cs1,-11.55%
Cc1ccc(CN(C)C(=O)c2ccc(NC3CC3)nc2)o1,10.98%
NC(=O)CN1CC(O)c2ccccc2S1(=O)=O (centres unmarked),-28.23%
O=C(O)C(F)(F)F.[H][C@@]12CN(Cc3ccncc3)CC[C@]1([H])CN(c1ccc(C)nn1)C2,-2.223%
Cc1ccc2cccc(C(=O)NCCOCC3CC3)c2n1,-34.36%
CN1CCCc2cc(CNC(=O)c3ccc(-n4cnnc4)cc3)ccc21,53.86%
CCS(=O)(=O)N1CCC(c2nc3ccc(-c4ccccc4)cn3n2)CC1,25.11%
Cc1cccnc1CN1CCN(Cc2ccc(-c3cc[nH]n3)o2)CC1,-22.96%
O=C(NCc1nncn1C1CCCCC1)C1COc2ccccc2O1 (centres unmarked),-44.05%
[H][C@@]12CCN(S(=O)(=O)c3cccnc3)C[C@]1(c1nc(C)no1)CCO2,-68.6%
O=C(Cn1cccn1)NCC1CCN(Cc2cc3ccccc3[nH]2)C1 (centres unmarked),-30.03%
CCc1ccsc1C(=O)N1CCN(C(=O)CC(F)(F)F)CC1,10.57%
CSc1ccc(C(CNC(=O)C2CC2)N2CCc3sccc3C2)cc1 (centres unmarked),5.244%
Cc1cnn(C2CCCN(C(=O)c3ccnc(-n4cncn4)c3)C2)c1 (centres unmarked),-15.14%
O=C(O)C(F)(F)F.[H][C@@]12CCN(C(=O)c3ccc[nH]3)[C@@]1([H])CC(=O)N2CCN1CCCC1,-27.35%
CN(C)C(=O)CN1CCC(c2cncc(-c3cccc(Cl)c3)n2)CC1,45.69%
O=C(NC1CC1)c1cc(NC(=O)N2CCOCC2)ccc1Cl,-29.9%
[H][C@@]12COC(=O)N1CCN(C(=O)NC(C)C)C2,-9.871%
CCn1cnnc1CNC(=O)N1CCCN(C(C)=O)CC1,-11.9%
O=S(=O)(Cc1ccccc1F)NCCCN1CCCCC1,28.97%
O=S(=O)(NCc1ccc(S(=O)(=O)N2CCCC2)s1)c1cc(Cl)ccc1Cl,-28.04%
CCC[C@@H]1CN(Cc2ccc(C(F)(F)F)nc2)C[C@H]1C(=O)O,-9.538%
COc1ccc(CCC(=O)N2CCN(c3nc(C)ns3)CC2)cc1,2.267%
Cc1ccc(NC2CCN(C(=O)CCCn3ccnc3C)CC2)nn1,9.449%
CC(C)SCc1cccc(NC(=O)NCCc2nnc[nH]2)c1,-45.61%
[H][C@@]12CN(Cc3ccsc3)C[C@]1([H])OCCN2Cc1cnn(C)c1,-165.6%
Clc1ccc(-c2nnc([C@H]3CCN(C4CCCCC4)C3)o2)cc1,7.04%
CCc1cnc(C)nc1NC(CC)c1cnn(C)c1 (centres unmarked),-29.45%
CC(=O)NS(=O)(=O)c1ccc(F)cc1C(F)(F)F,-17.49%
COCC(=O)NC(C)Cc1ccc(Br)cc1 (centres unmarked),5.146%
N#Cc1cccc(OC2CCN(C(=O)c3cncc(O)c3)CC2)c1,-57.54%
CC(Cn1cccn1)NC(=O)NCc1cccnc1OC(C)C (centres unmarked),3.91%
CCCC1COCCN1Cc1ccc(C(=O)O)cc1 (centres unmarked),0.03726%
O=C(NCc1ccccc1CN1CCCC1=O)Nc1nccs1,7.78%
[H][C@]12CN(C(=O)c3ccnn3C)C[C@@]1([H])OCCN(S(C)(=O)=O)C2,-45.16%
O=C(Cc1c[nH]c(=O)[nH]c1=O)N1CCCCC1CCc1cccc(O)c1 (centres unmarked),-7.403%
Cc1cccc(C(=O)NC2CCN(c3cnn(C)c3)C2=O)n1 (centres unmarked),0.833%
Cc1nn(C)c(Cl)c1C1CCCN1C(=O)c1cnccn1 (centres unmarked),-1.364%
O=C(O)CCc1cc2n(n1)CCN(Cc1ccc3[nH]ccc3c1)C2,-27.6%
Cc1cc(C)n(CC2CCCN2C(=O)Cc2c(C)noc2C)n1 (centres unmarked),17.12%
[H][C@@]12C[C@H](c3nc(C)no3)CN(S(=O)(=O)CCC)[C@]1([H])CCO2,-22.03%
COc1ncccc1NC(=O)C1CC1,-4.997%
Cc1cccc(NC(=O)C2(n3cnnn3)CCCCC2)n1,-27.27%
O=C(c1cnns1)N1CCN(Cc2ccc(F)cc2Cl)CC1,1.422%
Cc1c(-c2ccncc2)n[nH]c1NC(=O)CCOC(C)C,-4.459%
CC(=O)N1Cc2ccccc2CC1C(=O)Nc1ccc(N(C)C)cn1 (centres unmarked),-117.5%
O=C(Cn1cccnc1=O)NC(Cc1ccsc1)c1ccccn1 (centres unmarked),7.918%
O=C(CCc1cccs1)N1CCCC1c1noc(C2CC2)n1 (centres unmarked),-20.6%
CCNC(=O)N1CCC2(C1)c1ccccc1S(=O)(=O)N2CCOC (centres unmarked),-17.97%
O=C(O)C(F)(F)F.[H][C@@]12C[C@@H](c3nc(C)no3)CN(S(=O)(=O)c3cccnc3)[C@]1([H])CCO2,-9.37%
CC(C)(O)CN1CCN(C(=O)c2cnn(-c3ccccc3F)c2)CC1,-13.59%
Cc1cc(CN(C)C(=O)NC2CCN(C3CC3)CC2)no1,6.273%
CCCOCC1CCN(C(=O)Cn2ncc(N3CCCC3)cc2=O)C1 (centres unmarked),-18.18%

The first 11 entries again:

SMILES	percent effect
Cc1cc(C(=O)N2CCCC3(COCCN(c4ccccc4)C3)C2)[nH]n1 (centres unmarked)	-45.2%
CC(=O)c1c(F)cccc1NC1CCN(C(=O)C2CCCCC2)CC1	-32.26%
CN(Cc1ccccc1)C(=O)CSc1ccc2c(c1)OCCO2	-53.44%
Cn1cc2c(n1)C(CNCc1ccco1)OCC2.O=C(O)C(F)(F)F.O=C(O)C(F)(F)F (centres unmarked)	-82.64%
CCOCC1CN(Cc2ccc(OC)cc2)Cc2nn(CC3CC3)cc21.O=C(O)C(F)(F)F (centres unmarked)	-39.92%
Cc1cc(CN2CCC(CNC(=O)c3noc4c3CCCC4)C2)[nH]n1 (centres unmarked)	-303.5%
CN(Cc1cccnc1)C1CC2(CCN(c3ncccn3)CC2)C1.O=C(O)C(F)(F)F.O=C(O)C(F)(F)F	-50.17%
CC(C)C(Sc1nccn1C1CC1)C(=O)NCc1cccnc1 (centres unmarked)	-23%
COCCn1c2c(ccc1=O)CCN(C(=O)Cc1cccs1)CC2	-13.95%
CSCCc1ccc(NC(=O)NCc2ccnc(N(C)C)c2)cc1	20.55%
O=C(Nc1ccccc1)c1cccc(S(=O)(=O)NC[C@@H]2C[C@H](F)CN2)c1	-0.2042%